Data on three molecules can be found in publication PMC10681309.

Results are given in words; binding and its absence hold for the method and conditions named. In cells and extracts the contact can be indirect. Some entries that bind do so weakly or less than the wild type. For part of these data: Tags and fused reporters may be left off the sequences shown.

Assay [1] addresses GFP-nsp8 (SARS-CoV-2 nonstructural protein 8) (SARS-CoV-2) (UniProt P0DTD1). The assay can be described thus: co-IP.
Assay [2] addresses nsp8 expressed from the Spike-deleted SARS-CoV-2 replicon (SARS-CoV-2) (UniProt P0DTD1). The assay can be described thus: cross-linking + co-IP.

B1: HA-TRIM4 (enzyme, UniProt Q9C037 1-500)
chain: MEAEDIQEELTCPICLDYFQDPVSIECGHNFCRGCLHRNWAPGGGPFPCPECRHPSAPAALRPNWALARLTEKTQRRRLGPVPPGLCGRHWEPLRLFCEDDQRPVCLVCRESQEHQTHAMAPIDEAFESYRTGNFDIHVDEWKRRLIRLLLYHFKQEEKLLKSQRNLVAKMKKVMHLQDVEVKNATQWKDKIKSQRMRISTEFSKLHNFLVEEEDLFLQRLNKEEEETKKKLNENTLKLNQTIASLKKLILEVGEKSQAPTLELLQNPKEVLTRSEIQDVNYSLEAVKVKTVCQIPLMKEMLKRFQVAVNLAEDTAHPKLVFSQEGRYVKNTASASSWPVFSSAWNYFAGWRNPQKTAFVERFQHLPCVLGKNVFTSGKHYWEVESRDSLEVAVGVCREDVMGITDRSKMSPDVGIWAIYWSAAGYWPLIGFPGTPTQQEPALHRVGVYLDRGTGNVSFYSAVDGVHLHTFSCSSVSRLRPFFWLSPLASLVIPPVTDRK
Consider B1, for which the binding entry in assay [1] is listed as “binds”.

B2: full-length GST-MDA5 (protein, UniProt Q9BYX4 1-1025)
chain: MSNGYSTDENFRYLISCFRARVKMYIQVEPVLDYLTFLPAEVKEQIQRTVATSGNMQAVELLLSTLEKGVWHLGWTREFVEALRRTGSPLAARYMNPELTDLPSPSFENAHDEYLQLLNLLQPTLVDKLLVRDVLDKCMEEELLTIEDRNRIAAAENNGNESGVRELLKRIVQKENWFSAFLNVLRQTGNNELVQELTGSDCSESNAEIENLSQVDGPQVEEQLLSTTVQPNLEKEVWGMENNSSESSFADSSVVSESDTSLAEGSVSCLDESLGHNSNMGSDSGTMGSDSDEENVAARASPEPELQLRPYQMEVAQPALEGKNIIICLPTGSGKTRVAVYIAKDHLDKKKKASEPGKVIVLVNKVLLVEQLFRKEFQPFLKKWYRVIGLSGDTQLKISFPEVVKSCDIIISTAQILENSLLNLENGEDAGVQLSDFSLIIIDECHHTNKEAVYNNIMRHYLMQKLKNNRLKKENKPVIPLPQILGLTASPGVGGATKQAKAEEHILKLCANLDAFTIKTVKENLDQLKNQIQEPCKKFAIADATREDPFKEKLLEIMTRIQTYCQMSPMSDFGTQPYEQWAIQMEKKAAKEGNRKERVCAEHLRKYNEALQINDTIRMIDAYTHLETFYNEEKDKKFAVIEDDSDEGGDDEYCDGDEDEDDLKKPLKLDETDRFLMTLFFENNKMLKRLAENPEYENEKLTKLRNTIMEQYTRTEESARGIIFTKTRQSAYALSQWITENEKFAEVGVKAHHLIGAGHSSEFKPMTQNEQKEVISKFRTGKINLLIATTVAEEGLDIKECNIVIRYGLVTNEIAMVQARGRARADESTYVLVAHSGSGVIEHETVNDFREKMMYKAIHCVQNMKPEEYAHKILELQMQSIMEKKMKTKRNIAKHYKNNPSLITFLCKNCSVLACSGEDIHVIEKMHHVNMTPEFKELYIVRENKALQKKCADYQINGEIICKCGQAWGTMMVHKGLDLPCLKIRNFVVVFKNNSTKKQYKKWVELPITFPNLDYSECCLFSDED
In the case of B2, in assay [1], the binding entry is listed as “binds”.

B3: endogenous MDA5 (protein, UniProt Q9BYX4 1-1025)
chain: B2 chain
As for B3, in assay [2], the binding entry is “binds”.
